The list shows a part of the results.
B1: il2ra_site2_2erj_normal_mot_HHH_b1_06099_000000027_0001_20_36_H_._b0b48449b8979d840ab1151e5fe11a36_0001_af2_0001_0000400013_0000001_0 (protein)
chain: DEELRELAELLRRGDREAYRLLLRLLIRIERGDPEAEEKLEEAIRLARELGDEYVVESLEALLEV
B2: il2ra_site2_2erj_sap_13_mot_HHH_b2_03387_af2_000000185_0001_39_52_H_._75aebd89e8525d44691031ba10cfd25b_0001_0001_0001000013_0000001_0_0001 (protein)
chain: SSSSNEESSELSREVFEELKKLFKEGDPEKVEELAEEAIERLEELGDPDAAETLRALLEHVSSSS
B3: il2ra_site2_2erj_sap_24_mot_HHH_b2_00907_000000126_0001_1_15_H_._HHH_b2_07963_af2_0001_0000300017_0000001_0_0001 (protein)
chain: SSSSSSEEKEVWEEVAELLLRALHVSEEEAKELLEEAKRLAEEVNDPFLRRYIEYVEKSLSSSSS
B4: il2ra_site1_2b5i_normal_mot_HHH_b2_04910_000000118_0001_1_19_H_._HHH_b1_04153_0001_0000100001_0000001_0_1_af2pred_dldesign_0_af2pred (protein)
chain: SSSSSDPAKEALELFLEANKLYQAGKEEEAKEKLEKALELAKKGKATSLLKMIESALKLISSSSS
B5: il2ra_site2_3nfp_sap_14_mot_HHH_b1_06613_af2_000000098_0001_23_40_H_._HHH_b2_05028_0001_0000600019_0000001_0_0001 (protein)
chain: SSSDKHHKIWELAHRAFKLLERGNPEEARELLEEAEELAEELNSDVARRSLEELLKAIEEHSSSS
B6: il2ra_site1_2b5i_normal_mot_HHH_b1_01495_af2_000000272_0001_42_56_H_._HHH_b2_08182_af2_0001_0000100001_0000001_1 (protein)
chain: SSSSSDEEEAAELFLEASRLFARGNREEAKELLEEALRLAEEGGDPKTAEDIRFMLERLSSSSSS
B7: il2ra_site2_2erj_sap_22_mot_678ce523d3521e26f84bf18760a59296_0001_000000113_0001_1_12_H_._HHH_b1_03364_0001_0000900007_0000001_1_0001 (protein)
chain: SSSSDRLRRLYELAVRIAKLLAEGDEEETEKAIEEAEELAEEEKSDNAKEILEDLKKRVNSSSSS
B8: il2ra_site2_2erj_normal_mot_HHH_b2_01204_af2_000000056_0001_19_34_H_._HHH_b2_00923_0001_0001000009_0000001_0 (protein)
chain: SSSSSDTEEEVERLLEEAKHIQDLEEVYRLLVEALHLASKVRDPELQRLVAKVVEEIAESSSSSS
B9: il2ra_site1_1z92_sap_15_mot_HHH_b1_00451_000000274_0001_21_37_H_._HHH_b1_03292_af2_0001_0000100003_0000001_0_0001_af2pred_0001_af2pred_1 (protein)
chain: SEEEIEEEIRELLGVPPEVVEKLLKLIAELSGSPPEEALKELTEIARFAGDPERVKRLIERLEKA
B10: il2ra_site1_3nfp_normal_mot_HHH_b1_03420_af2_000000029_0001_41_57_H_._HHH_b2_02183_af2_0001_0000500045_0000001_0 (protein)
chain: SSSSNEVREVQELLEELREAIREGDEELVKEIFKRLQELAEERNDELIEHLAREALELNRNSSSS
B11: il2ra_site2_3nfp_sap_14_mot_HHH_b2_00822_000000043_0001_41_55_H_._ec5fd73691b6872a0dd65f4fb8198062_0001_1_af2_0001_0000400039_0000001_1_0001 (protein)
chain: SVEERAEKLAEEANVPPDAAYAALALAYLLRDGDLTPEEEEKLRRDIERAVGDPELAELVIELAK
B12: il2ra_site1_1z92_normal_mot_HHH_b2_04375_000000267_0001_42_56_H_._0c3bf8cb9d93094680b22e24baf1e485_0001_0001_0000100014_0000001_0_af2pred_0001_af2pred_swapped (protein)
chain: SVLELIKEILEELGNPELARDVEYSIEVAERRGIPPENIVKFLRRWAERKGDPDLLRAIELAEER
B13: il2ra_site1_2b5i_normal_mot_HHH_b2_06557_000000121_0001_42_56_H_._HHH_b2_02609_af2_0001_0000100014_0000001_0_af2pred_dldesign_0_af2pred (protein)
chain: SSSSSEVEDEIDDLALEALRLYKAGKKEEAKELLEKALELAKKAKDEKRVKQLEELLKLLSSSSS
B14: il2ra_site1_3nfp_normal_mot_HHH_b1_01159_af2_000000107_0001_1_20_H_._HHH_b2_04366_af2_0001_0000300021_0000001_0 (protein)
chain: SSSSDEEHRKLEELFRELFELAKKGDEEEARRLAEEAEELAEELGSKLHLRSLRIALRLLESSSS
B15: il2ra_site2_2erj_normal_mot_64bd02d26d05ce9f1a62b616cea0b888_0001_af2_000000020_0001_36_49_H_._HHH_b2_04281_af2_0001_0000600036_0000001_0 (protein)
chain: SSSSDELEEVYRLLVRLLRLVAEGDEEEVQKVAEEVRRLAEELDSPNLEEMVENLERLLESSSSS
B16: il2ra_site1_2b5i_sap_19_mot_6641a0bf45b743e2eabc084d195d318e_0001_000000060_0001_53_65_H_._HEEHE_2518_0001_0000400042_0000001_0_0001_af2pred_dldesign_0_af2pred (protein)
chain: SSSSSGEVRRLLLEAERLIKAGKLEEARELLERALALARARGRTKLAAALEKILEDLEELSSSSS
B17: il2ra_site2_2erj_normal_mot_HHH_b1_04373_af2_000000118_0001_18_33_H_._HHH_b2_05536_af2_0001_0000400024_0000001_0 (protein)
chain: SSSSNEELRELYELAVKLLRLASEGDEEEFEKLAEELKRLAQELQSDTVEEAVEFLEELISSSSS
B18: il2ra_site2_3nfp_sap_17_mot_HHH_b1_06589_000000230_0001_37_50_H_._HHH_b2_07531_af2_0001_0000800044_0000001_0_0001 (protein)
chain: SSSSDLEERLRELLEELEELVEEGDKERFREVAREVSQLVWENNDFEAFARLAELLYKITSSSSS
B19: il2ra_site2_3nfp_normal_mot_HHH_b1_01086_000000225_0001_20_36_H_._HHH_eva_0065_af2_0001_0000500027_0000001_0_af2pred_0001_1_af2pred_swapped (protein)
chain: DPESEHLKFVIKLLIIAFRAGNISPEEAEELLEKALEEARRLGDEEAEKLAEEALEEIERAKESS

The binders below were run against il2ra, P01589 (assay: yeast display titration).

Binder | apparent Kd
B1 | inactive: no binding seen
B2 | inactive: no binding seen
B3 | inactive: no binding seen
B4 | inactive: no binding seen
B5 | inactive: no binding seen
B6 | inactive: no binding seen
B7 | inactive: no binding seen
B8 | inactive: > 407 nM
B9 | inactive: no binding seen
B10 | inactive: no binding seen
B11 | inactive: no binding seen
B12 | inactive: no binding seen
B13 | inactive: no binding seen
B14 | inactive: no binding seen
B15 | inactive: no binding seen
B16 | inactive: no binding seen
B17 | inactive: no binding seen
B18 | inactive: no binding seen
B19 | inactive: no binding seen

Three entries from above, as comma-separated lines.
Binder,apparent Kd
B14,inactive: no binding seen
B15,inactive: no binding seen
B16,inactive: no binding seen

From article PMC10163288
